Test results taken from the supplement of paper PMC10849652.
Some of the results follow.

Sequences of proteins named here, by UniProt entry; tags and fusion partners are left off. A change or cut given only in a name is not applied to a line headed by its entry.
UniProt Q9H6Q4: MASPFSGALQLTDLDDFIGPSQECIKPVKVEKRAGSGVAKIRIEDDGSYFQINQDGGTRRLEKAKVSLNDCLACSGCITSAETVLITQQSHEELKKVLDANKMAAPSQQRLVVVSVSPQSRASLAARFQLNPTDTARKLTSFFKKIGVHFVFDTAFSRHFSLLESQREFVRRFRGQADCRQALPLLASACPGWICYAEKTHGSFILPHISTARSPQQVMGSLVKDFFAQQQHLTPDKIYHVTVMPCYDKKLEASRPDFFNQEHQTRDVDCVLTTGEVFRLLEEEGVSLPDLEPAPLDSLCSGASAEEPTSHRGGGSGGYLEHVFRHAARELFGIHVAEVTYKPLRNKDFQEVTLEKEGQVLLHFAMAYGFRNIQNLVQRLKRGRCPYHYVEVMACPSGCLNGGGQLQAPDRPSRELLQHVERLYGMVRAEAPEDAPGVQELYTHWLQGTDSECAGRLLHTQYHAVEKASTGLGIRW
UniProt Q96FZ7: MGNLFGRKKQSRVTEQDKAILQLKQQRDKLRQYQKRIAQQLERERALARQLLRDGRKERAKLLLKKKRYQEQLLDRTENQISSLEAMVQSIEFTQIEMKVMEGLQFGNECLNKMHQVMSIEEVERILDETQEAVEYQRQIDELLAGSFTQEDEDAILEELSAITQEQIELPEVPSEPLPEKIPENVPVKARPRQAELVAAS
UniProt Q9BW66: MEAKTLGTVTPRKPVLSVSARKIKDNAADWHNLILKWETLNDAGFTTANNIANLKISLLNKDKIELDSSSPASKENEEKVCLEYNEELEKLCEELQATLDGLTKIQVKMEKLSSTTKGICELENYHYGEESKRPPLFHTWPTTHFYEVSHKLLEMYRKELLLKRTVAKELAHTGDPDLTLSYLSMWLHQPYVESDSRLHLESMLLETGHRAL
UniProt Q9HCK8: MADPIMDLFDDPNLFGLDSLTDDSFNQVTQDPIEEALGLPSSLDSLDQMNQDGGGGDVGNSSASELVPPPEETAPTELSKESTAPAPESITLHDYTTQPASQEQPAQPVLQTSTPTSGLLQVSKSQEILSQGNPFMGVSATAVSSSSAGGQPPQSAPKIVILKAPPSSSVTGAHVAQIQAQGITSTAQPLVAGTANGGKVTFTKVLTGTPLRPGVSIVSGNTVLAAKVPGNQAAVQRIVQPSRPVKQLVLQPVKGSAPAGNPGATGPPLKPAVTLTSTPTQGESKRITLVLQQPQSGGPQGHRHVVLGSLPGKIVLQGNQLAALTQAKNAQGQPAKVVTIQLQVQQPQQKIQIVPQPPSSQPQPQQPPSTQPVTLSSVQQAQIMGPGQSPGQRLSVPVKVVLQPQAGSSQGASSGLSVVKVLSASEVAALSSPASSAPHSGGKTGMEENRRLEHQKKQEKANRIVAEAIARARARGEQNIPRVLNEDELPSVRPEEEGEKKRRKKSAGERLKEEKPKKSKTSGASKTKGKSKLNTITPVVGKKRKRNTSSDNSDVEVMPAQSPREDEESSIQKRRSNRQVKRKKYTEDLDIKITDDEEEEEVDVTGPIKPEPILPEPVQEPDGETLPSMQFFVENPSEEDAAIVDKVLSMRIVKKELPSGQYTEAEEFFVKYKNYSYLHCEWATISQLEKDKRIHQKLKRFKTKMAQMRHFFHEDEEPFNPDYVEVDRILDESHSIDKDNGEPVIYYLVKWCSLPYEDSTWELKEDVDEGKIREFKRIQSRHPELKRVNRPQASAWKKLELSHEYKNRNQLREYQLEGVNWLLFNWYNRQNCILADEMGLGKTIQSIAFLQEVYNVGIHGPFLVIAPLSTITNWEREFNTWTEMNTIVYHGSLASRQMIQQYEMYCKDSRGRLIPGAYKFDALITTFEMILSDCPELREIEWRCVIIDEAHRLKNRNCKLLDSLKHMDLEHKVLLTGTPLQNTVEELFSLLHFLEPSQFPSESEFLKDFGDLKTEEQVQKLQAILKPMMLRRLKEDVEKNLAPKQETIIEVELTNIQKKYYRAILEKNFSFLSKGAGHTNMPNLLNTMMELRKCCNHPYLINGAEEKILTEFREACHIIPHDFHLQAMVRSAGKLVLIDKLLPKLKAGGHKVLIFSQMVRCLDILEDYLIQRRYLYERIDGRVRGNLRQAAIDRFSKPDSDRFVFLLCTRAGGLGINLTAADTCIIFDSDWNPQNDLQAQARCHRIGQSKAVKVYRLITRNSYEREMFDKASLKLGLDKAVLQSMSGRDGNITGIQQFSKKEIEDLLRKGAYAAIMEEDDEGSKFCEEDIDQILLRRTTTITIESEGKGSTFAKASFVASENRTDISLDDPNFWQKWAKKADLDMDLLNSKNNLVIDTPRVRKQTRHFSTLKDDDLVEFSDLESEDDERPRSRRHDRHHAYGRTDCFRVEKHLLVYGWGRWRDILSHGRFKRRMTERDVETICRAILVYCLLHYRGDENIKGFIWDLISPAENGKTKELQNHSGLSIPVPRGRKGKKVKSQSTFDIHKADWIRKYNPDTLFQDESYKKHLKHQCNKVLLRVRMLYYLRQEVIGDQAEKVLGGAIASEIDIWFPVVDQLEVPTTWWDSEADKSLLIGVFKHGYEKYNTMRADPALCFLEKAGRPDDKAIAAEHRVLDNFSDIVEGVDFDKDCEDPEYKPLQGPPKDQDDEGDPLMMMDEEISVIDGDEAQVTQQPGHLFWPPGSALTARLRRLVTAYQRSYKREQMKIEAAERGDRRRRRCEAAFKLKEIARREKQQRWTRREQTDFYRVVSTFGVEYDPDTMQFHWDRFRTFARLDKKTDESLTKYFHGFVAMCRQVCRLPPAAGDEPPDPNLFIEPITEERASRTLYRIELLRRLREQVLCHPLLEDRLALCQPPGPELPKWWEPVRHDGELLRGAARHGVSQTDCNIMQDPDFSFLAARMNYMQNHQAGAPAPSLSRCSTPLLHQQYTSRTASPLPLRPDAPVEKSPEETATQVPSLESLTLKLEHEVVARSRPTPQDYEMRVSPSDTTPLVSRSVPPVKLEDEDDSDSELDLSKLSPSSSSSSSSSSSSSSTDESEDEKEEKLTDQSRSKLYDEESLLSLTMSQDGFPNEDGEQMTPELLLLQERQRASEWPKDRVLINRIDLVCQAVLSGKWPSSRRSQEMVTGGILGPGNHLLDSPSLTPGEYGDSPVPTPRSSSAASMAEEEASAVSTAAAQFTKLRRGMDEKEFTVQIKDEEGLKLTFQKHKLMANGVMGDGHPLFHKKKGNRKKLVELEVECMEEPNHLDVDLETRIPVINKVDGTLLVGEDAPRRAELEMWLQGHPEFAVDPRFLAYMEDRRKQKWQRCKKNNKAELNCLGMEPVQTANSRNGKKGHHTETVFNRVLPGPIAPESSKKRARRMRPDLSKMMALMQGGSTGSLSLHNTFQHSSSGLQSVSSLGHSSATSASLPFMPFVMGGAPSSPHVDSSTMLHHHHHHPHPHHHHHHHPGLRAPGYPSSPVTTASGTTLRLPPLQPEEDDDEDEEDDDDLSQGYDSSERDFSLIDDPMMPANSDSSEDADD
UniProt Q8N4Q1: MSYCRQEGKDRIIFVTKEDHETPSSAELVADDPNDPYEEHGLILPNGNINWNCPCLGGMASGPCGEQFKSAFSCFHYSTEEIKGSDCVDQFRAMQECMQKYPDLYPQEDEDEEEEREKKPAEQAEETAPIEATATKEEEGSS
UniProt Q9HD42: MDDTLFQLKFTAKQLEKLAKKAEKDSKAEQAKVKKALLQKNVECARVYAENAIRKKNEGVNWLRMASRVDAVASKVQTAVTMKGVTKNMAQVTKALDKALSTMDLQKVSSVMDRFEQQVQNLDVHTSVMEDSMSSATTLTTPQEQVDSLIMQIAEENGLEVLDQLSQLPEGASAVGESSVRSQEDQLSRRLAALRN
UniProt O75122: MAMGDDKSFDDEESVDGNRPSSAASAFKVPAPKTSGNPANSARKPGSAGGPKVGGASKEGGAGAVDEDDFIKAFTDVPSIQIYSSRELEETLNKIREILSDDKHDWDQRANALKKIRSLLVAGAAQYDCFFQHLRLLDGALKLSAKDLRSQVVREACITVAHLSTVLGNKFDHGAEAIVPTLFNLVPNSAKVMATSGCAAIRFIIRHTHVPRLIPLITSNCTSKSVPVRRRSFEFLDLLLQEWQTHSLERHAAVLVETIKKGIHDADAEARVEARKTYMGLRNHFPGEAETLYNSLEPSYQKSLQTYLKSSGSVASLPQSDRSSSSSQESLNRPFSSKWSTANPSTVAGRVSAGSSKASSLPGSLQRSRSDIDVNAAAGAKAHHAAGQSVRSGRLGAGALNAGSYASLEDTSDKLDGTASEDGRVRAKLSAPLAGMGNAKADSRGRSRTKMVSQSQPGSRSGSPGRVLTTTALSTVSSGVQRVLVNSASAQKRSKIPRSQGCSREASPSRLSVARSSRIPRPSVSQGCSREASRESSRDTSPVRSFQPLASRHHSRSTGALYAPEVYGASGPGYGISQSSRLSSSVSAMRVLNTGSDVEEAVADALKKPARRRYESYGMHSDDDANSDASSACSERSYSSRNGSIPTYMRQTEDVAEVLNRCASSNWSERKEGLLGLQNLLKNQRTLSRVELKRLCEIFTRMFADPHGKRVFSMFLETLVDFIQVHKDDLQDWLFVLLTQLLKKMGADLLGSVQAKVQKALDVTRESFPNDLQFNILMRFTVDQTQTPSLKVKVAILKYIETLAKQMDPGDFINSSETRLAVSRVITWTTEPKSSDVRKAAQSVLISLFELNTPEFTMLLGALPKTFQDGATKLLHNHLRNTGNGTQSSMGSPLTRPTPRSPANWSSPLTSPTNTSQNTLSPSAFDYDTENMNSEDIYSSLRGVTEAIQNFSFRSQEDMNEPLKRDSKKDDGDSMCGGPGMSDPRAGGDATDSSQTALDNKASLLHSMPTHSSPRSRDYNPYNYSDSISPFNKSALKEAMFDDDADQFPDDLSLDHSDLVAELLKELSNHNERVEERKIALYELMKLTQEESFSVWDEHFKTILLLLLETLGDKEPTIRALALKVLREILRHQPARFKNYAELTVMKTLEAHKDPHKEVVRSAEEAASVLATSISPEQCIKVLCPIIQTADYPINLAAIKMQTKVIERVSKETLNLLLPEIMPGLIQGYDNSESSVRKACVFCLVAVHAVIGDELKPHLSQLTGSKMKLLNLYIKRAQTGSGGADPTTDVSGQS
UniProt Q13111, whole entry, looked up: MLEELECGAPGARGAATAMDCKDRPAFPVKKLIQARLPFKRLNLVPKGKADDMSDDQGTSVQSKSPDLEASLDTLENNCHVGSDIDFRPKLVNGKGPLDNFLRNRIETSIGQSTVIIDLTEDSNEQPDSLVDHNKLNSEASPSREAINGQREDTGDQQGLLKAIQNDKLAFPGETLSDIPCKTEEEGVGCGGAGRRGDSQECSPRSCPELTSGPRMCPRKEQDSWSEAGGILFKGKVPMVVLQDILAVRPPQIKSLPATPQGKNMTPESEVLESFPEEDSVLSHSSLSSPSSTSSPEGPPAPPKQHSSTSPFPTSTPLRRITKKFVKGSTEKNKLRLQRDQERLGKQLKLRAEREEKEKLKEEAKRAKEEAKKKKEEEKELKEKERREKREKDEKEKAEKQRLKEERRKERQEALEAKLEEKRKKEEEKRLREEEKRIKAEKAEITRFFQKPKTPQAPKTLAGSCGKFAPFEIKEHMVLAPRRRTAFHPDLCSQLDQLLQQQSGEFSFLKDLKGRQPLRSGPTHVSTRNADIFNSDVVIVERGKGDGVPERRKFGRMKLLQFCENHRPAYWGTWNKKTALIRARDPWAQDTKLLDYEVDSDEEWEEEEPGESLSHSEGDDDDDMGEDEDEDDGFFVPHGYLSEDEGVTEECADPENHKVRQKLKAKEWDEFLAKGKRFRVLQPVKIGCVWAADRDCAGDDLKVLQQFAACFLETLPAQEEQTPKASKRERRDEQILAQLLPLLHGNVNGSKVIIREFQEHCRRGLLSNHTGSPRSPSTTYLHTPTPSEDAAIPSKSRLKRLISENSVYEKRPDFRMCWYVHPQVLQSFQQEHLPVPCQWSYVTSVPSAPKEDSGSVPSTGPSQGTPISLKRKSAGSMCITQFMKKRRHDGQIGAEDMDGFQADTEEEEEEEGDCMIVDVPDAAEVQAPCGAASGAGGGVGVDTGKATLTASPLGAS
UniProt Q9NRP2: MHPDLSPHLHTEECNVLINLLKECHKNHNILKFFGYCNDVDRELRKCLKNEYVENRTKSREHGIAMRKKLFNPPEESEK

How the values were obtained:
Experiment in all cases: log2 fold change, soluble protein after heating vs DMSO (PISA); higher = thermal stabilisation; K562 lysate, 10 uM; active = over 0.2 and 3.5 SD of the protein, either way, in both replicates (recomputed)
[1] = compound: CCCS(=O)(=O)Nc1ccc(F)c(C(=O)c2c[nH]c3ncc(-c4ccc(Cl)cc4)cc23)c1F [vemurafenib]
Method in brief: (§1)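 The values are log-two fold changes in thermal stability compared with solvent controls and come from duplicates. They were obtained by TMTpro 16plex LC-MS/MS, with channel sums equalised, on the supernatant after 21,000xg for 90 min. That supernatant came from crude K562 extract at 1 mg/mL protein treated with 10 μM compound for 30 min, heated for 3 min across 48°C-58°C, pooled and brought to 0.5% NP-40 at 4°C.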

[2] = compound: CCCS(=O)(=O)Nc1ccc(F)c(C(=O)c2c[nH]c3ncc(Cl)cc23)c1F
Method in brief: as §1

[3] = compound: CCN(CCCOc1ccc2c(Nc3cc(CC(=O)Nc4cccc(F)c4)[nH]n3)ncnc2c1)CCOP(=O)(O)O [barasertib]
Method in brief: as §1

[4] = compound: CC[C@@H]1C(=O)N(C)c2cnc(Nc3ccc(C(=O)NC4CCN(C)CC4)cc3OC)nc2N1C1CCCC1
Method in brief: as §1

[5] = compound: CC[C@@H]1C(=O)N(C)c2cnc(Nc3ccc(C(=O)N[C@H]4CC[C@H](N5CCN(CC6CC6)CC5)CC4)cc3OC)nc2N1C(C)C [volasertib]
Method in brief: as §1

[6] = compound: CCn1c(C(=O)N(C2CC2)C2CC2)cc2c3c(ncn3C)c(Nc3cc(C)n(C)n3)nc21
Method in brief: as §1

[7] = compound: CCn1cc(-c2ccnc3[nH]c(-c4cccc(CN(C)C)c4)cc23)c(-c2ccc(NC(=O)N(C)C)cc2)n1
Method in brief: as §1

[8] = compound: CN1CCC(CNc2ccc3ncc(-c4cccc(OC(F)(F)F)c4)n3n2)CC1
Method in brief: as §1

[9] = compound: CN1CCN(CCOc2cc(OC3CCOCC3)c3c(Nc4c(Cl)ccc5c4OCO5)ncnc3c2)CC1 [saracatinib]
Method in brief: as §1

[10] = compound: CN1CCN(c2nc(C3=C(c4c[nH]c5ccccc45)C(=O)NC3=O)c3ccccc3n2)CC1 [sotrastaurin]
Method in brief: as §1

[11] = compound: CN1CC[C@H](c2c(O)cc(O)c3c(=O)cc(-c4ccccc4Cl)oc23)[C@H](O)C1 [alvocidib]
Method in brief: as §1

[12] = compound: CN1CCc2c(c3ccccc3n2Cc2ccc(C(=O)NO)cc2)C1 [Tubastatin A]
Method in brief: as §1

[13] = compound: CNC(=O)C1=CC=CC=C1NC2=NC(=NC=C2Cl)NC3=C(C=C(C=C3)N4CCOCC4)OC
Method in brief: as §1

[14] = compound: CNC(=O)c1ccc(Nc2ncc(C(F)(F)F)c(NCc3nccnc3N(C)S(C)(=O)=O)n2)cc1 [defactinib]
Method in brief: as §1

[15] = compound: CNc1nc(-c2ccc3c(N)n[nH]c3c2)cc(N2C[C@@H](C(=O)NC3CCCCC3)CC[C@H]2C)n1
Method in brief: as §1

[16] = compound: COC(=O)N[C@@H](C)CNc1nccc(-c2cn(C(C)C)nc2-c2cc(Cl)cc(NS(C)(=O)=O)c2F)n1 [encorafenib]
Method in brief: as §1

[17] = compound: COC(=O)[C@H](CCSC)NC(=O)C1=C(C=C(C=C1)NC[C@H](CS)N)C2=CC=CC=C2
Method in brief: as §1

[18] = compound: COc1cc(Nc2ncc3c(n2)-c2ccc(Cl)cc2C(c2c(F)cccc2OC)=NC3)ccc1C(=O)O [alisertib]
Method in brief: as §1

[19] = compound: COc1cc2nc(-c3cc(F)ccc3O)nc(N[C@@H]3CNC[C@H]3C(C)(C)O)c2cc1OC
Method in brief: as §1

[20] = compound: COc1cc2ncnc(Nc3ccc(F)c(Cl)c3)c2cc1OCCCN1CCOCC1 [gefitinib]
Method in brief: as §1

Target	log2 fold change [1]	log2 fold change [2]	log2 fold change [3]	log2 fold change [4]	log2 fold change [5]	log2 fold change [6]	log2 fold change [7]	log2 fold change [8]	log2 fold change [9]	log2 fold change [10]	log2 fold change [11]	log2 fold change [12]	log2 fold change [13]	log2 fold change [14]	log2 fold change [15]	log2 fold change [16]	log2 fold change [17]	log2 fold change [18]	log2 fold change [19]	log2 fold change [20]
CIAO3 (UniProt Q9H6Q4)	inactive: 0.018	inactive: 0.016	inactive: -0.036	inactive: 0.009	inactive: -0.014	inactive: -0.026	inactive: -0.093	inactive: 0.035	inactive: 0.008	inactive: 0.013	inactive: -0.016	inactive: -0.03	inactive: 0.041	inactive: 0.01	inactive: 0.071	inactive: 0.009	inactive: -0.013	inactive: -0.023	inactive: -0.016	inactive: 0.021
CHMP6 (UniProt Q96FZ7)	inactive: -0.031	inactive: 0.034	inactive: 0.028	inactive: -0.022	inactive: -0.041	inactive: -0.027	inactive: 0.059	inactive: -0.03	inactive: 0.028	inactive: -0.075	inactive: -0.052	inactive: 0.087	inactive: 0.009	inactive: 0.036	inactive: 0.024	inactive: 0.086	inactive: -0.029	inactive: -0.152	inactive: -0.089	inactive: -0.116
CMTR1 (UniProt Q8N1G2)	inactive: -0.007	inactive: -0.003	inactive: 0.018	inactive: -0.084	inactive: -0.059	inactive: 0.024	inactive: 0	inactive: -0.027	inactive: -0.007	inactive: 0.048	inactive: -0.005	inactive: -0.066	inactive: 0.012	inactive: 0.018	inactive: -0.035	inactive: 0.022	inactive: 0.052	inactive: -0.003	inactive: 0	inactive: 0.022
CLEC16A (UniProt Q2KHT3)	inactive: 0.003	inactive: -0.023	inactive: 0.014	inactive: 0.001	inactive: 0.023	inactive: -0.007	inactive: 0.157	inactive: -0.14	inactive: 0.004	inactive: 0.016	inactive: 0.086	inactive: 0.027	inactive: 0.026	inactive: -0.004	inactive: 0.034	inactive: 0.038	inactive: -0.03	inactive: -0.023	inactive: 0.028	inactive: 0.043
CINP isoform 3 (UniProt Q9BW66)	inactive: -0.071	inactive: 0.01	inactive: 0.052	inactive: 0.098	inactive: -0.05	inactive: -0.033	inactive: -0.331	inactive: 0.189	inactive: 0.047	inactive: 0.014	inactive: -0.056	inactive: -0.107		inactive: -0.056	inactive: 0.028	inactive: 0.003	inactive: 0.062	inactive: 0	inactive: 0.064	inactive: -0.24
CLCN7 (UniProt P51798)	inactive: 0.026	inactive: 0.007	inactive: 0.03	inactive: 0.007	inactive: -0.015	inactive: 0.032	inactive: -0.029	inactive: 0.02	inactive: 0.008	inactive: 0.071	inactive: -0.032	inactive: 0.03	inactive: -0.038	inactive: -0.006	inactive: -0.086	inactive: 0.019	inactive: -0.022	inactive: -0.04	inactive: 0	inactive: -0.046
CHD8 (UniProt Q9HCK8)	inactive: 0.079	inactive: 0.024	inactive: 0.034	inactive: -0.056	inactive: -0.135	inactive: -0.017	inactive: 0	inactive: 0.01	inactive: 0.042	inactive: 0.026	inactive: -0.009	inactive: -0.049	inactive: 0.019	inactive: -0.043	inactive: 0.041	inactive: 0.064	inactive: 0.087	inactive: -0.034	inactive: 0.09	inactive: 0.1
CHCHD4 isoform 2 (UniProt Q8N4Q1)	inactive: 0.144	inactive: 0.015	inactive: 0.109	inactive: 0.072	inactive: 0.057	inactive: -0.1	active: -0.415	inactive: 0.228	inactive: 0.05	inactive: -0.007	inactive: -0.145	inactive: 0.026	inactive: 0.027	inactive: -0.044	inactive: 0.045	inactive: 0.062	inactive: -0.039	inactive: 0.024	inactive: 0.016	inactive: -0.015
CHM (UniProt P24386)	inactive: -0.015	inactive: 0.07	inactive: 0.04	inactive: 0.031	inactive: -0.036	inactive: 0.009	inactive: 0.004	inactive: 0	inactive: -0.031	inactive: 0.035	inactive: -0.039	inactive: -0.01	inactive: 0.046	inactive: -0.15	inactive: 0.042	inactive: 0.025	inactive: 0.058	inactive: 0.068	inactive: -0.005	inactive: 0.042
CHMP1A (UniProt Q9HD42)	inactive: -0.012	inactive: 0.013	inactive: -0.012	inactive: 0.052	inactive: 0.039	inactive: 0.026	inactive: 0.009	inactive: 0.01	inactive: -0.021	inactive: 0.019	inactive: 0.004	inactive: 0.017	inactive: 0.026	inactive: -0.003	inactive: 0.074	inactive: -0.004	inactive: -0.05	inactive: -0.013	inactive: -0.017	inactive: 0.031
CHD3 isoform 3 (UniProt Q12873)	inactive: -0.033	inactive: 0.009	inactive: 0.035	inactive: -0.02	inactive: -0.018	inactive: -0.039	inactive: -0.066	inactive: -0.027	inactive: 0.001	inactive: 0.004	inactive: 0.003	inactive: -0.074	inactive: 0.015	inactive: 0.006	inactive: 0.02	inactive: 0.029	inactive: 0.085	inactive: 0.047	inactive: 0.01	inactive: -0.014
CHUK (UniProt O15111)	inactive: 0.026	inactive: 0.001	inactive: 0.059	inactive: -0.095	inactive: -0.047	inactive: -0.045	inactive: 0.111	inactive: -0.097	inactive: 0.059	inactive: 0.017	inactive: 0.029	inactive: -0.203	inactive: 0.077	inactive: 0.089	inactive: -0.039	inactive: -0.021	inactive: 0.121	inactive: 0.018	inactive: 0.052	inactive: -0.06
CLASP2 isoform 3 (UniProt O75122)	inactive: 0.054	inactive: -0.002	inactive: 0.02	inactive: 0.015	inactive: -0.006	inactive: 0.013	inactive: -0.162	inactive: 0.093	inactive: 0.011	inactive: 0.01	inactive: -0.151	inactive: -0.103	inactive: 0.007	inactive: -0.051	inactive: -0.003	inactive: 0.035	inactive: -0.008	inactive: 0.032	inactive: 0	inactive: -0.007
CHAF1A (UniProt Q13111)	inactive: 0.005	inactive: 0.005	inactive: 0.006	inactive: 0.029	inactive: 0.003	inactive: -0.009	inactive: 0.029	inactive: 0.004	inactive: 0.038	inactive: -0.016	inactive: -0.003	inactive: -0.089	inactive: -0.019	inactive: 0.02	inactive: 0.038	inactive: 0.003	inactive: 0.063	inactive: -0.107	inactive: -0.01	inactive: -0.065
CMC2 (UniProt Q9NRP2)	inactive: -0.029	inactive: 0.036	inactive: 0.019	inactive: 0.033	inactive: 0.006	inactive: 0.16	inactive: 0.087	inactive: -0.018	inactive: 0.062	inactive: 0.076	inactive: -0.073	inactive: -0.017	inactive: 0.012	inactive: 0.038	inactive: -0.028	inactive: -0.056	inactive: -0.145	inactive: 0.005	inactive: -0.018	inactive: 0.198
CLTC (UniProt Q00610)	inactive: 0.046	inactive: 0.014	inactive: 0.045	inactive: -0.069	inactive: -0.083	inactive: 0.02	inactive: 0.096	inactive: -0.069	inactive: 0.014	inactive: 0.01	inactive: 0.03	inactive: -0.046	inactive: -0.028	inactive: 0.031	inactive: -0.03	inactive: -0.007	inactive: 0.095	inactive: 0.018	inactive: 0.004	inactive: -0.023

Two entries from above, with bars between the fields.
Target | log2 fold change [1] | log2 fold change [2] | log2 fold change [3] | log2 fold change [4] | log2 fold change [5] | log2 fold change [6] | log2 fold change [7] | log2 fold change [8] | log2 fold change [9] | log2 fold change [10] | log2 fold change [11] | log2 fold change [12] | log2 fold change [13] | log2 fold change [14] | log2 fold change [15] | log2 fold change [16] | log2 fold change [17] | log2 fold change [18] | log2 fold change [19] | log2 fold change [20]
CHMP1A (UniProt Q9HD42) | inactive: -0.012 | inactive: 0.013 | inactive: -0.012 | inactive: 0.052 | inactive: 0.039 | inactive: 0.026 | inactive: 0.009 | inactive: 0.01 | inactive: -0.021 | inactive: 0.019 | inactive: 0.004 | inactive: 0.017 | inactive: 0.026 | inactive: -0.003 | inactive: 0.074 | inactive: -0.004 | inactive: -0.05 | inactive: -0.013 | inactive: -0.017 | inactive: 0.031
CMC2 (UniProt Q9NRP2) | inactive: -0.029 | inactive: 0.036 | inactive: 0.019 | inactive: 0.033 | inactive: 0.006 | inactive: 0.16 | inactive: 0.087 | inactive: -0.018 | inactive: 0.062 | inactive: 0.076 | inactive: -0.073 | inactive: -0.017 | inactive: 0.012 | inactive: 0.038 | inactive: -0.028 | inactive: -0.056 | inactive: -0.145 | inactive: 0.005 | inactive: -0.018 | inactive: 0.198
